The list shows a part of the results. These are further read-outs of the screen, such as a control signal, another cell line or another target. No call is given for them. Most of these compounds were active or inconclusive in the main read-out, so they are no random draw. Potencies come from curve fits of mixed quality, noted in brackets.

A short description of this assay: Cell signaling CRE-BLA (Fsk stim). The note with it: CHO CRE-bla reporter (cAMP response element driving beta-lactamase), forskolin EC10, beta-lactamase ratio; measured here: 460 nm blue channel. The essentials: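 CHO CRE-bla cells, overnight plating in Opti-MEM with 0.5% dialyzed FBS; cpd titration + EC10 NKH 477, 3 h 37 °C; CCF4 2 h RT; ex 405/em 460 vs 530 ratio → %Activity, AC50.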
In general, AC50 refers to the concentration at which the activity in the assay is half-maximal. On to `O=C(CS(=O)(=O)Cc1ccccc1)N1CCc2ccccc21`, for which the AC50 was 5.01 µM [falling, single point].

Turning to `O=c1c(-c2cc(F)cc(F)c2)nc2cnc(N3CCOCC3)nc2n1Cc1cccs1`, the AC50 was 0.631 µM [rising, full curve].

In the case of `CN(CCCNC(=O)C1CCN(S(=O)(=O)N2CCC3(CC2)OCCO3)CC1)Cc1ccccc1`, the concentration at half-maximal activity (AC50) was 5.01 µM [falling, single point].

As for `Cc1c(C(=O)OCCOC(C)C)[nH]c2c1C(=O)CC(c1ccco1)C2` (stereo not drawn), the AC50 is 0.631 µM [rising, full curve].

For `Cc1ccc(NC(=O)OCC(F)(F)C(F)F)cc1NC(=O)OCC(F)(F)C(F)F`, the AC50 is 0.631 µM [falling, full curve].

As for `Cc1cc(NC(=O)CSc2nc3ccsc3c(=O)n2Cc2ccccn2)n[nH]1`, the half-maximal activity concentration (AC50) is 12.6 µM [rising, single point].

Turning to `CN(C)c1ccc(NC(=O)Cn2ncn3c(cc4ccccc43)c2=O)cc1`, the AC50 was 3.98 µM [falling, full curve].

Consider `CCCCn1c(=O)[nH]c(=O)c2c1nc(CN1C(=O)c3ccccc3S1(=O)=O)n2CCC`, for which the AC50 was 12.6 µM [rising, partial curve].

As for `Cc1ccccc1Cn1nnc(C(=O)Nc2cccc(C)c2C)c1N`, the AC50 was 0.794 µM [falling, full curve].

Turning to `O=C(CN1C2CCCC1CC(NC(=O)c1ccco1)C2)Nc1ccccc1C(F)(F)F` (stereo not drawn), the AC50 is 3.98 µM [rising, single point].

As to `CN(C)c1nc(SCCOC(=O)c2ccccc2)nc(N(C)C)n1`, the AC50 is 12.6 µM [rising, single point].

Consider `O=C(CSc1nc2ccccc2c(=O)n1C1CC1)NCc1ccccc1`, for which the AC50 was 0.251 µM [falling, partial curve].

With `O=C(CCn1ccc2ccccc21)Nc1ccc(N2CCOCC2)cc1`, the AC50 was 0.0251 µM [falling, full curve, poor fit].

As to `CCOC(=O)c1nn(-c2ccccc2)c(C(=O)OCC)c1N`, the AC50 was 10 µM [rising, single point].

Take `COc1ccc(C)cc1NC(=O)CSc1nnnn1Cc1ccccc1`: the AC50 was 5.01 µM [falling, single point].

For the molecule `O=C1Nc2ccc(S(=O)(=O)N3CCCCCC3)c3cccc1c23`, the half-maximal activity concentration (AC50) is 10 µM [rising, partial curve].

With `CCNc1c2c3c(cccc3n(C)c1=O)C(=O)c1ccccc1-2`, the AC50 is 2 µM [rising, full curve, poor fit].

On to `CN1CCN(c2nc(-c3ccccc3)c3cc(Cl)ccc3n2)CC1`, for which the AC50 is 6.31 µM [rising, partial curve].

With `Cc1nn(CC(O)Cn2c3c(c4ccccc42)CCN(C)C3=O)c(C)c1Br` (stereo not drawn), the AC50 was 25.1 µM [falling, single point].

As to `CCOC(=O)c1sc(NCc2ccco2)c(-c2nc3ccccc3s2)c1N`, the concentration at half-maximal activity (AC50) was 0.158 µM [falling, full curve].

As to `Cn1c(=O)c2c(nc(Br)n2CC(=O)C23CC4CC(CC(C4)C2)C3)n(C)c1=O`, the AC50 is 10 µM [rising, partial curve].

In the case of `O=C(c1ccncc1)N1CCC2(CCCN(c3ncccn3)C2)CC1`, the AC50 is 0.501 µM [falling, full curve, poor fit].

Consider `CCN1CCN(c2ncc(C(=O)Nc3ccccc3C(=O)OC)c3ccccc23)CC1`, for which the AC50 was 7.94 µM [rising, partial curve].

As to `CCCn1c(CN2CCCCC2CC)nc2c1c(=O)n(C)c(=O)n2C` (stereo not drawn), the AC50 is 12.6 µM [rising, single point].

With `CCn1cc(C(=O)OCC(=O)OC2CC(C)CCC2C(C)C)c(=O)c2ccc(C)nc21` (stereo not drawn), the AC50 is 25.1 µM [rising, single point].

Take `O=C(O)c1cccnc1SCCc1ccccc1`: the concentration at half-maximal activity (AC50) was 20 µM [falling, partial curve].

As to `CCOc1ccc(OCC)c(NC(=O)c2[nH]c(C)c(C(C)=O)c2C)c1`, the half-maximal activity concentration (AC50) is 25.1 µM [rising, single point].

In the case of `CN(C)/C=N/c1c(C#N)cnn1-c1ccc(C(F)(F)F)cn1`, the concentration at half-maximal activity (AC50) was 20 µM [rising, single point].

For `Cc1ccc(-c2csc3nnc(SCc4csc(C)n4)n23)cc1`, the concentration at half-maximal activity (AC50) is 12.6 µM [rising, single point].

With `Cc1sc2nc(C(C)C)nc(SCC(=O)N3CCN(C(=O)c4ccco4)CC3)c2c1C`, the AC50 was 7.94 µM [rising, partial curve].

As for `CCn1c(SCC#N)nc2c(c1=O)C1(CCCC1)Cc1ccccc1-2`, the AC50 is 10 µM [rising, partial curve].

Turning to `O=C(O)C(Cc1ccccc1)Cc1ccccc1`, the concentration at half-maximal activity (AC50) is 5.01 µM [falling, single point].

In the case of `Nc1ccc2c(c1)C(=O)c1ccccc1C2=O`, the AC50 was 3.16 µM [rising, partial curve].

As to `COc1ccc(C)cc1NC(=O)CSc1nnc(-c2ccccn2)n1Cc1ccco1`, the concentration at half-maximal activity (AC50) was 1.58 µM [rising, full curve].

Consider `COc1cc(C2N(c3ccccc3)CCN2c2ccccc2)cc(OC)c1OC`, for which the AC50 was 12.6 µM [falling, single point].

`COc1ccc(OC)c(-c2cc(C(=O)Nc3c(C)n(C)n(-c4ccccc4)c3=O)no2)c1`: the half-maximal activity concentration (AC50) is 7.94 µM [rising, partial curve].

Turning to `c1csc(Cc2nn3c(-c4n[nH]c5c4CCC5)nnc3s2)c1`, the AC50 was 25.1 µM [rising, single point].

`Nc1c(C(=O)NCCN2CCOCC2)c2nc3ccccc3nc2n1CCc1ccccc1F`: the AC50 is 12.6 µM [rising, partial curve].

Regarding `CCOC(=O)c1c(C)[nH]c(C(=O)COC(=O)c2ccc(F)c(S(=O)(=O)N3CCOCC3)c2)c1C`, the AC50 was 7.94 µM [rising, partial curve].

On to `COc1cc2c(cc1OC)-c1cc(OCCN3CCOCC3)nc(=O)n1CC2`, for which the AC50 was 3.98 µM [rising, full curve].

In the case of `CC(=O)N1c2ccccc2C(=O)OC1c1cccnc1` (stereo not drawn), the AC50 is 0.631 µM [rising, full curve].

As to `c1ccc(CN2CCN(c3nc4ccccc4n4cnnc34)CC2)cc1`, the AC50 is 10 µM [rising, partial curve].

As for `Cc1cnc(CNc2ccnc(-c3cccnc3)n2)cn1`, the AC50 was 10 µM [rising, single point].

The values above are taken from PubChem BioAssay AID662 (National Center for Advancing Translational Sciences (NCATS), 2007).
